Results published in the supplement of paper PMC12823440, “Inhibitors supercharge kinase turnover through native proteolytic circuits” (Nature, 2025).
The other results are listed elsewhere or left out. Hit calls seldom repeat between salt and free forms of one compound.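 Kinases were expressed as nanoluciferase fusions in K562 cells and luminescence was read every 4 h between 2 and 18 h as percent of control, DMSO set to 100% and a positive control to 0%. A time point counts as decreased when the signal drops significantly (2 sigma). The hit call is the authors' own, does not follow from the count of time points alone, and its rule is not shown.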

Amino acid sequences for entries named in this document (tags omitted). A change or cut given only in a name is not applied to a line headed by its entry.
UniProt O96013: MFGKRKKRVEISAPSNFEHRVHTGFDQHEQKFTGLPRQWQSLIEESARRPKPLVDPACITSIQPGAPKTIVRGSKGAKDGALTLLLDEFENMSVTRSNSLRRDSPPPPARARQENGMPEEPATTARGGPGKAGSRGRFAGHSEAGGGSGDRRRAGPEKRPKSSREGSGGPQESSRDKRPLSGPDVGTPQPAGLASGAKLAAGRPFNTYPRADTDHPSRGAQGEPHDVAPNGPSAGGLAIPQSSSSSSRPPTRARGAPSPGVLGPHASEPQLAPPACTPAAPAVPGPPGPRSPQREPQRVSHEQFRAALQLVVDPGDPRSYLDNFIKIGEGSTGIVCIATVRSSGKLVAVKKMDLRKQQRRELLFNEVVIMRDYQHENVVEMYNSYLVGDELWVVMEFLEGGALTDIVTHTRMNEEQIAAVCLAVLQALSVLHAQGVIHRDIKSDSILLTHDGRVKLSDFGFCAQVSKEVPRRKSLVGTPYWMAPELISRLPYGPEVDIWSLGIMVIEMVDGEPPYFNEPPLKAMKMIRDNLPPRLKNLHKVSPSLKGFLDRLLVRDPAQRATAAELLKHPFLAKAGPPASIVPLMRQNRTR
UniProt Q00535, whole entry, looked up: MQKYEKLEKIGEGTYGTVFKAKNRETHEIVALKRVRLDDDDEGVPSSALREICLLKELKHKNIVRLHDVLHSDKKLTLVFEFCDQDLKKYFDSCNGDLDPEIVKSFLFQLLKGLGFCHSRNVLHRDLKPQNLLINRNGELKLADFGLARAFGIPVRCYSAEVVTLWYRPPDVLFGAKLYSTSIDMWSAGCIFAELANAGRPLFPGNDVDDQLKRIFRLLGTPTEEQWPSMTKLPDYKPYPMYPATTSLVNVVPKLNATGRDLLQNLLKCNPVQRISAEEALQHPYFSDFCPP
UniProt P31749: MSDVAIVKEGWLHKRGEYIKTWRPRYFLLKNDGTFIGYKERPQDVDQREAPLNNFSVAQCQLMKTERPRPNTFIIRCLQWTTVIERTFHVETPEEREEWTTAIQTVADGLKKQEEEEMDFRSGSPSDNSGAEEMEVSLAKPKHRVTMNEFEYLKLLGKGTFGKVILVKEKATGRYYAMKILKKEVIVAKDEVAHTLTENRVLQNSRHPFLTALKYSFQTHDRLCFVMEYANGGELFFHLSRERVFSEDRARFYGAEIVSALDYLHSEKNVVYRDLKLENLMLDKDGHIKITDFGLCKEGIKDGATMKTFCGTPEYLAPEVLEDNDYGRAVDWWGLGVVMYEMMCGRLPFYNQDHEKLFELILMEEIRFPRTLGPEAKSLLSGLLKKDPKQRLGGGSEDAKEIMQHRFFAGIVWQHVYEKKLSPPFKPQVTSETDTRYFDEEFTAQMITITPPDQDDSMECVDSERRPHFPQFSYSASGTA
UniProt P07949, whole entry, looked up: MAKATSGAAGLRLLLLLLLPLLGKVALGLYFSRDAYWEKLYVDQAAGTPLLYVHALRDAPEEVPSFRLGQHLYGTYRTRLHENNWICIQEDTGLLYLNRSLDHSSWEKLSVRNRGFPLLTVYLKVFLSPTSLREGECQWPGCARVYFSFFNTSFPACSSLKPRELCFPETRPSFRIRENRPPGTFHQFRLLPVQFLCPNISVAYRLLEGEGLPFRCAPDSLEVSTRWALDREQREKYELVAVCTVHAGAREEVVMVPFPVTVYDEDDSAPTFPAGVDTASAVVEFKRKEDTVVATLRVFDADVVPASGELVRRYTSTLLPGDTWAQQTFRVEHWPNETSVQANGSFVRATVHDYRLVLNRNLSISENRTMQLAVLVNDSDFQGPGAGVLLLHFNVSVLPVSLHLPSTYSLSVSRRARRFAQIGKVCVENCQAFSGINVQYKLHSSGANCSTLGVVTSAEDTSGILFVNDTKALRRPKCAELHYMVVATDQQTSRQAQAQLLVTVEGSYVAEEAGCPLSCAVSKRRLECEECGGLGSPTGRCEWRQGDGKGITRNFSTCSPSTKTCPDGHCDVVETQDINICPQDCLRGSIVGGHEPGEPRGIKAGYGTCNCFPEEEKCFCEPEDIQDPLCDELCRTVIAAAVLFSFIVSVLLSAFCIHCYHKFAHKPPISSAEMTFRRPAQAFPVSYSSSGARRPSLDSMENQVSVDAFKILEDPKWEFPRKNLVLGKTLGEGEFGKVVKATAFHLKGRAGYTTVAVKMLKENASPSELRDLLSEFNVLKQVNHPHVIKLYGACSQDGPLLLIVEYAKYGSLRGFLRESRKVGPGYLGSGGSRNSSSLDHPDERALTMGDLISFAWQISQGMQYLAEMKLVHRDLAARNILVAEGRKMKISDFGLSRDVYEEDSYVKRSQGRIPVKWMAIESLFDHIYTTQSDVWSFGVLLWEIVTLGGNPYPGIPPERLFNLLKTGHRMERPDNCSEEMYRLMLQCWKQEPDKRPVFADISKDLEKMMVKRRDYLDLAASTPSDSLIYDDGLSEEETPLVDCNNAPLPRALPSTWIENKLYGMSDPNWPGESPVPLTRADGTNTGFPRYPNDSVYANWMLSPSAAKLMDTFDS
UniProt P49137, whole entry, looked up: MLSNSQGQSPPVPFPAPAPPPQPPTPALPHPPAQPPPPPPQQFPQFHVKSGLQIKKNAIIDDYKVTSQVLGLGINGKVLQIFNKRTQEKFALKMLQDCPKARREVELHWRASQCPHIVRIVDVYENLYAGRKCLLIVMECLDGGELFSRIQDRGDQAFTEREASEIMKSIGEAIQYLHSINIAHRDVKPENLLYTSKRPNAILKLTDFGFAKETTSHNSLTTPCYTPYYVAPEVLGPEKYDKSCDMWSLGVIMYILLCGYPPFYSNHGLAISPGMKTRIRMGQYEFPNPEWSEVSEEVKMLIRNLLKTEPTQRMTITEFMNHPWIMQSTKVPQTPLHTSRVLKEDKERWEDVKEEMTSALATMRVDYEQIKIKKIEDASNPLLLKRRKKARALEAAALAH
UniProt Q06187: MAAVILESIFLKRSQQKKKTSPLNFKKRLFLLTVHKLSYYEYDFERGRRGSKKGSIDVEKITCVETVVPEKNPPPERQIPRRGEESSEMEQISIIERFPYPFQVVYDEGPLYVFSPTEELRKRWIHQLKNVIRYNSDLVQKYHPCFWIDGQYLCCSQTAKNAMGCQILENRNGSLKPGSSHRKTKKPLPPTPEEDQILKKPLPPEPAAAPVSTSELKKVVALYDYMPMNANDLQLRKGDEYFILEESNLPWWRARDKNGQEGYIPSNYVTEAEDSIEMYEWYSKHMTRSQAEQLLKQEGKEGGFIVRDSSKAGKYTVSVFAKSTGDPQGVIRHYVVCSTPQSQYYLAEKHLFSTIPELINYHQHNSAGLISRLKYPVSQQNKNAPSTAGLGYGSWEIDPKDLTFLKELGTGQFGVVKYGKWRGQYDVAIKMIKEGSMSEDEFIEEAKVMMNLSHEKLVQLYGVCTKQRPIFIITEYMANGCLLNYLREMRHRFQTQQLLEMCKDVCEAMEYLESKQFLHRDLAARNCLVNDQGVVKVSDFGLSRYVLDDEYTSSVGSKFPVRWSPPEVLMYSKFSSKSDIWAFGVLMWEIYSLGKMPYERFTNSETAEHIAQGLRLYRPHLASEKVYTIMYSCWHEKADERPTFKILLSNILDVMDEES
UniProt Q9UQB9: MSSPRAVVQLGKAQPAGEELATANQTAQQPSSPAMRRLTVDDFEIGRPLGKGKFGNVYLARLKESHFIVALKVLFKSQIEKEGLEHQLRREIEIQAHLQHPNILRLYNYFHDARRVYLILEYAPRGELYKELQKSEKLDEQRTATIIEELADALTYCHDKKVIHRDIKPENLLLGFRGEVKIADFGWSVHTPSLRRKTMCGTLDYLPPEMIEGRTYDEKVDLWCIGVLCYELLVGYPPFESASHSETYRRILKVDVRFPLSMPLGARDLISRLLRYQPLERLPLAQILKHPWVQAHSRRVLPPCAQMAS
UniProt P53671: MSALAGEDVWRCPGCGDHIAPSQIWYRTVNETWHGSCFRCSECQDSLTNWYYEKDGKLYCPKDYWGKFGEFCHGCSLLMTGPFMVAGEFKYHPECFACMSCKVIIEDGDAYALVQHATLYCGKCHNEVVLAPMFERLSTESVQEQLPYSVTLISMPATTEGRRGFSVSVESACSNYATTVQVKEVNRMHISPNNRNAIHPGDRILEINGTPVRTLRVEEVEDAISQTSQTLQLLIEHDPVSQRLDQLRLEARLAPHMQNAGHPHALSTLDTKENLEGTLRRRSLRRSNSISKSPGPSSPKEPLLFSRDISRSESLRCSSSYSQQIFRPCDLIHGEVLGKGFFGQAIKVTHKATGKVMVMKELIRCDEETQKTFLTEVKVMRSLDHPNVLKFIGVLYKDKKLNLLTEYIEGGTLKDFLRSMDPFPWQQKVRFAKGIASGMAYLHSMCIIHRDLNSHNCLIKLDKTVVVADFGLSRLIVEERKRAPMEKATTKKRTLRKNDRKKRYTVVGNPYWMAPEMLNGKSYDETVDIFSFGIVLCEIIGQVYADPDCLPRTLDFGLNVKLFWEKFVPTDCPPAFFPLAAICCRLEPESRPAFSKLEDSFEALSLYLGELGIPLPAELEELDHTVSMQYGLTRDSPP
UniProt Q15418, whole entry: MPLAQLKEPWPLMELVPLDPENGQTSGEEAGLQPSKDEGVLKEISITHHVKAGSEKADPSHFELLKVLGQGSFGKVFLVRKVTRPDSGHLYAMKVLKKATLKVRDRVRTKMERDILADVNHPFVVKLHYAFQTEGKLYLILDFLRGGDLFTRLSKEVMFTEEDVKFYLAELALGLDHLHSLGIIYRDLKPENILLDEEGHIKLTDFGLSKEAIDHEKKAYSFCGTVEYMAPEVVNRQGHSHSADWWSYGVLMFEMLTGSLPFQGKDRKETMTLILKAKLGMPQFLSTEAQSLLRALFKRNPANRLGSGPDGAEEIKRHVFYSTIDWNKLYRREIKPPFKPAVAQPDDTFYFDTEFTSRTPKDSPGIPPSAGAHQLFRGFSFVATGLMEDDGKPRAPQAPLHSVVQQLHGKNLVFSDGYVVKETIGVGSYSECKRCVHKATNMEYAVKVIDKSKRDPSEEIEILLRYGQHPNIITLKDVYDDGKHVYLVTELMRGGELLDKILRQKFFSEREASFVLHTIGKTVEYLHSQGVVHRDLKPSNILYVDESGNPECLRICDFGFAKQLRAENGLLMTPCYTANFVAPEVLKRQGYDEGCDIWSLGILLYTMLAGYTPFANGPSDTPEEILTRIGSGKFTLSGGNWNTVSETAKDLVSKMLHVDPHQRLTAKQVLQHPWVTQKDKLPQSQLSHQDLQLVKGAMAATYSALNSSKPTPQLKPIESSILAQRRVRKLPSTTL
UniProt P00519, whole entry: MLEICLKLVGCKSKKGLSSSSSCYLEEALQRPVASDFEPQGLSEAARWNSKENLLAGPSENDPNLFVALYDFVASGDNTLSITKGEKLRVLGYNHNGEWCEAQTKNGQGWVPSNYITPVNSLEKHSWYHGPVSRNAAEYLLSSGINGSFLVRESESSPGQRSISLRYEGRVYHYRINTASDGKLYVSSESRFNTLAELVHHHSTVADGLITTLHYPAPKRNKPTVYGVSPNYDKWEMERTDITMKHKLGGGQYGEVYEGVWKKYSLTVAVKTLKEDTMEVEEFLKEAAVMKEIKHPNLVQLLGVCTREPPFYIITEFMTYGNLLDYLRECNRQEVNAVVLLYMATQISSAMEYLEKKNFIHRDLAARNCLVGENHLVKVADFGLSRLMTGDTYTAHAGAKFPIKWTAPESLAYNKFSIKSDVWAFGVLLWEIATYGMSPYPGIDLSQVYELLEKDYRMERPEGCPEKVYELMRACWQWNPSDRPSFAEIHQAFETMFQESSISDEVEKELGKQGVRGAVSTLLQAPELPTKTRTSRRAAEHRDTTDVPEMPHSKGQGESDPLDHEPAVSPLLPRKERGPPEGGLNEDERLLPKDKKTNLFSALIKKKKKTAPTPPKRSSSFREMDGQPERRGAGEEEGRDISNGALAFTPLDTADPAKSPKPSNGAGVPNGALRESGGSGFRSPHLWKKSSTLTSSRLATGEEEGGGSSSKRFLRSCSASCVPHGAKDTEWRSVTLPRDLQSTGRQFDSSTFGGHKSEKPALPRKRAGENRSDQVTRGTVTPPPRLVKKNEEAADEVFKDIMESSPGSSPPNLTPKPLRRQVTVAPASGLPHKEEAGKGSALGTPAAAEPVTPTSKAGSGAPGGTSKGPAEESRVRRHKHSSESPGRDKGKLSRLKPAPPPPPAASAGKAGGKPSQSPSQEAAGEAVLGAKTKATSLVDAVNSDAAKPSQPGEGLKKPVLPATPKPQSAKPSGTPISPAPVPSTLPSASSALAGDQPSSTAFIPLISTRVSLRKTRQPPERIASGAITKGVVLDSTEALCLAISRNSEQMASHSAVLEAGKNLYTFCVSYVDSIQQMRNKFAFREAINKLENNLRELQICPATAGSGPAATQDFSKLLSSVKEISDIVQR

What was measured:
Experiment in all cases: number of time points (of 5) at which kinase-Nluc abundance scored as decreased, DMSO-normalised (count); higher = more persistent destabilization
Lorlatinib = compound: C[C@H]1Oc2cc(cnc2N)-c2c(nn(C)c2C#N)CN(C)C(=O)c2ccc(F)cc21 [Lorlatinib]; details: 10 µM; K562; 2-18 h
[1] = compound: Cc1[nH]c(/C=C2\C(=O)Nc3ccc(F)cc32)c(C)c1C(=O)NC[C@H](O)CN1CCOCC1; details: 2.5 µM; K562; 2-18 h
[2] = compound: Cc1cc(C)n2c1C=C1C=CC(CCC(=O)NCCN3CCN(C/C=C/C(=O)N4CCCC(n5nc(-c6ccc(Oc7ccccc7)cc6)c6c(N)ncnc65)C4)CC3)=[N+]1[B-]2(F)F; details: 2.5 µM; K562; 2-18 h
ENMD-2076 (Tartrate) = compound: Cc1cc(Nc2cc(N3CCN(C)CC3)nc(/C=C/c3ccccc3)n2)n[nH]1 [ENMD-2076 (Tartrate)]; details: 2.5 µM; K562; 2-18 h
[3] = compound: Cc1cc(Nc2cc(N3CCN(C)CC3)nc(/C=C/c3ccccc3)n2)n[nH]1; details: 2.5 µM; K562; 2-18 h
Brivanib = compound: Cc1cc2c(F)c(Oc3ncnn4cc(OC[C@@H](C)O)c(C)c34)ccc2[nH]1 [Brivanib]; details: 10 µM; K562; 2-18 h
Doramapimod = compound: Cc1ccc(-n2nc(C(C)(C)C)cc2NC(=O)Nc2ccc(OCCN3CCOCC3)c3ccccc23)cc1 [Doramapimod]; details: 10 µM; K562; 2-18 h
[4] = compound: Cc1ccc(Nc2nccc(N(C)c3ccc4c(C)n(C)nc4c3)n2)cc1S(N)(=O)=O [Pazopanib (Hydrochloride)]; details: 10 µM; K562; 2-18 h
Pazopanib = compound: Cc1ccc(Nc2nccc(N(C)c3ccc4c(C)n(C)nc4c3)n2)cc1S(N)(=O)=O [Pazopanib]; details: 10 µM; K562; 2-18 h
Lck inhibitor 2 = compound: Cc1ccc(O)cc1Nc1ccnc(Nc2cccc(C(N)=O)c2)n1 [Lck inhibitor 2]; details: 10 µM; K562; 2-18 h
Vadimezan = compound: Cc1ccc2c(=O)c3cccc(CC(=O)O)c3oc2c1C [Vadimezan]; details: 10 µM; K562; 2-18 h
Nilotinib = compound: Cc1cn(-c2cc(NC(=O)c3ccc(C)c(Nc4nccc(-c5cccnc5)n4)c3)cc(C(F)(F)F)c2)cn1 [Nilotinib]; details: 2.5 µM; K562; 2-18 h
[5] = compound: Cc1cnc(Nc2ccc(OCCN3CCCC3)cc2)nc1Nc1cccc(S(=O)(=O)NC(C)(C)C)c1 [Fedratinib (hydrochloride hydrate)]; details: 2.5 µM; K562; 2-18 h
Fedratinib = compound: Cc1cnc(Nc2ccc(OCCN3CCCC3)cc2)nc1Nc1cccc(S(=O)(=O)NC(C)(C)C)c1 [Fedratinib]; details: 2.5 µM; K562; 2-18 h
Dasatinib = compound: Cc1nc(Nc2ncc(C(=O)Nc3c(C)cccc3Cl)s2)cc(N2CCN(CCO)CC2)n1 [Dasatinib]; details: 2.5 µM; K562; 2-18 h
[6] = compound: Cn1cc(/C=C2\C(=O)Nc3cccnc32)c2ccccc21; details: 10 µM; K562; 2-18 h
[7] = compound: Fc1ccc(-c2nc(-c3ccc4ccccc4c3F)[nH]c2-c2ccncc2)cc1; details: 10 µM; K562; 2-18 h
[8] = compound: Cc1cc2ncnn2cc1Nc1ncc2c(n1)n(C1CCOCC1)c(=O)n2C; details: 10 µM; K562; 2-18 h

Target | number of time points (Lorlatinib) | number of time points [1] | number of time points [2] | number of time points (ENMD-2076 (Tartrate)) | number of time points [3] | number of time points (Brivanib) | number of time points (Doramapimod) | number of time points [4] | number of time points (Pazopanib) | number of time points (Lck inhibitor 2) | number of time points (Vadimezan) | number of time points (Nilotinib) | number of time points [5] | number of time points (Fedratinib) | number of time points (Dasatinib) | number of time points [6] | number of time points [7] | number of time points [8]
RAF1 (UniProt P04049) | 0 | 0 | 0 | 0 | 0 | 0 | 0 | 0 | 0 | 0 | 0 | 3 | 0 | 0 | 2 | 0 |  | 
MAPK4 (UniProt P31152) | 0 | 0 | 0 | 0 | 0 | 0 | 0 | 0 | 0 | 0 | 0 | 2 | 0 | 0 | 1 | 0 | 0 | 
FGFR2 (UniProt P21802) | 0 | 0 | 0 | 0 | 0 | 0 | 0 | 0 | 0 | 0 | 0 | 3 | 0 | 0 | 4 | 0 |  | 
RIPK1 (UniProt Q13546) | 0 | 0 | 0 | 0 | 0 | 0 | 0 | 0 | 0 | 0 | 0 | 2 | 0 | 0 | 2 |  | 0 | 0
CDK2 (UniProt P24941) | 0 | 0 | 0 | 0 | 0 | 0 | 0 | 0 | 0 | 0 | 0 | 1 | 0 | 0 | 0 | 0 | 0 | 0
ZAK (UniProt Q9NYL2) | 0 | 0 | 0 | 0 | 0 | 0 | 0 | 0 | 0 | 0 | 0 | 1 | 0 | 0 | 1 |  | 0 | 0
PAK4 (UniProt O96013) | 0 | 0 | 0 | 0 | 0 | 0 | 0 | 0 | 0 | 0 | 0 | 0 | 0 | 0 | 0 | 0 | 0 | 0
CDK5 (UniProt Q00535) | 0 | 0 | 0 | 0 | 0 | 0 | 0 | 0 | 0 | 0 | 0 | 1 | 0 | 0 | 0 | 0 | 0 | 0
TEC (UniProt P42680) | 0 | 0 | 0 | 0 | 0 | 0 | 0 | 0 | 0 | 0 | 0 | 2 | 0 | 0 | 3 | 0 | 0 | 0
BRAF (UniProt P15056) | 0 | 0 | 0 | 0 | 0 | 0 |  |  |  | 0 | 0 |  | 0 | 0 |  | 0 | 0 | 0
MAP2K2 (UniProt P36507) | 0 | 0 | 0 | 0 | 0 | 0 | 0 | 0 | 0 | 0 | 0 | 0 | 0 | 0 | 0 | 0 | 0 | 0
TYK2 (UniProt P29597) | 0 | 0 | 0 | 0 | 0 | 0 | 0 | 0 | 0 | 0 | 0 | 2 | 0 | 0 | 3 | 0 | 5 | 0
AKT1 (UniProt P31749) | 0 | 0 | 0 | 0 | 0 | 0 | 0 | 0 | 0 | 0 | 0 | 1 | 0 | 0 | 0 | 0 | 0 | 
FLT3 (UniProt P36888) | 0 | 0 | 0 | 0 | 0 | 0 | 0 | 0 | 0 | 0 | 0 | 4 | 0 | 0 |  | 0 | 0 | 0
CSK (UniProt P41240) | 0 | 0 | 0 | 0 | 0 | 0 | 0 | 0 | 0 | 0 | 0 | 1 | 0 | 0 | 0 | 0 | 0 | 
RET (UniProt P07949) | 0 | 0 | 0 | 0 | 0 | 0 | 0 | 0 | 0 | 0 | 0 | 2 | 0 | 0 | 2 |  |  | 
CAMK2G (UniProt Q13555) | 0 | 0 | 0 | 0 | 0 | 0 | 0 | 0 | 0 | 0 | 0 | 1 | 0 | 0 | 2 | 0 | 0 | 
FGR (UniProt P09769) | 0 | 0 | 0 | 0 | 0 | 0 | 0 | 0 | 0 | 0 | 0 | 0 | 0 | 0 | 1 |  | 0 | 0
BMX (UniProt P51813) | 0 | 0 | 0 | 0 | 0 | 0 | 0 | 0 | 0 |  | 0 |  |  |  |  | 0 | 0 | 4

Some of the entries above, set out differently.
Target	number of time points (Lorlatinib)	number of time points [1]	number of time points [2]	number of time points (ENMD-2076 (Tartrate))	number of time points [3]	number of time points (Brivanib)	number of time points (Doramapimod)	number of time points [4]	number of time points (Pazopanib)	number of time points (Lck inhibitor 2)	number of time points (Vadimezan)	number of time points (Nilotinib)	number of time points [5]	number of time points (Fedratinib)	number of time points (Dasatinib)	number of time points [6]	number of time points [7]	number of time points [8]
CDK5 (UniProt Q00535)	0	0	0	0	0	0	0	0	0	0	0	1	0	0	0	0	0	0
TEC (UniProt P42680)	0	0	0	0	0	0	0	0	0	0	0	2	0	0	3	0	0	0

Following part

Target | number of time points (Lorlatinib) | number of time points [1] | number of time points [2] | number of time points (ENMD-2076 (Tartrate)) | number of time points [3] | number of time points (Brivanib) | number of time points (Doramapimod) | number of time points [4] | number of time points (Pazopanib) | number of time points (Lck inhibitor 2) | number of time points (Vadimezan) | number of time points (Nilotinib) | number of time points [5] | number of time points (Fedratinib) | number of time points (Dasatinib) | number of time points [6] | number of time points [7] | number of time points [8]
PIK4CB (UniProt Q9UBF8) | 0 | 0 | 0 | 0 | 0 | 0 | 0 | 0 | 0 | 0 | 0 | 2 | 0 | 0 | 2 | 0 | 1 | 0
MAPKAPK2 (UniProt P49137) | 0 | 0 | 0 | 0 | 0 | 0 | 0 | 0 | 0 | 0 | 0 | 1 | 0 | 0 | 0 |  | 0 | 0
PRKCA (UniProt P17252) | 0 | 0 | 0 | 0 | 0 | 0 | 0 | 0 | 0 | 0 | 0 | 0 | 0 | 0 | 0 | 0 | 0 | 0
BTK (UniProt Q06187) | 0 | 0 | 0 | 0 | 0 | 0 | 0 | 0 | 0 | 0 | 0 | 0 | 0 | 0 |  | 0 | 0 | 0
RIPK2 (UniProt O43353) | 0 | 0 | 0 | 0 | 0 | 0 | 0 | 0 | 0 | 0 | 0 | 2 | 0 | 0 | 2 |  | 0 | 0
EPHA2 (UniProt P29317) | 0 | 0 | 0 | 0 | 0 | 0 |  | 0 | 0 | 0 | 0 | 1 | 0 | 0 |  | 0 | 3 | 0
AURKC (UniProt Q9UQB9) | 0 | 0 | 0 | 0 | 0 | 0 | 0 | 0 | 0 | 0 | 0 | 4 | 0 | 0 | 5 | 0 | 0 | 0
LIMK2 (UniProt P53671) | 0 | 0 | 0 | 0 | 0 | 0 | 0 | 0 | 0 | 0 | 0 | 2 | 0 | 0 | 2 | 0 | 0 | 
PDK1 (UniProt Q15118) | 0 | 0 | 0 | 0 | 0 | 0 | 0 | 0 | 0 | 0 | 0 | 0 | 0 | 0 | 0 |  | 0 | 0
ZAP70 (UniProt P43403) | 0 | 0 | 0 | 0 | 0 | 0 | 0 | 0 | 0 | 0 | 0 | 0 | 0 | 0 | 0 |  | 0 | 0
SRC (UniProt P12931) | 0 | 0 | 0 | 0 | 0 | 0 | 0 | 0 | 0 | 0 | 0 | 0 | 0 | 0 |  | 0 | 0 | 0
LCK (UniProt P06239) | 0 | 0 | 0 |  |  |  | 0 | 0 | 0 | 0 | 0 | 0 | 0 | 0 |  | 0 | 0 | 0
RPS6KA1 (UniProt Q15418) | 0 |  | 0 | 0 | 0 | 0 | 0 | 0 | 0 | 0 | 0 | 1 | 0 | 0 | 0 | 0 | 0 | 0
EGFR_G719S (UniProt P00533) | 0 | 0 | 0 |  |  | 0 | 0 | 0 | 0 | 0 | 0 | 3 | 0 | 0 |  |  | 0 | 0
AURKB (UniProt Q96GD4) | 0 |  | 0 | 0 | 0 | 0 | 0 | 0 | 0 | 0 | 0 | 1 | 0 | 0 | 1 | 0 |  | 
ABL1 (UniProt P00519) | 0 |  | 0 |  |  |  |  |  |  | 2 |  |  |  |  |  | 0 | 0 | 
CSF1R (UniProt P07333) | 0 |  | 0 | 0 | 0 | 0 |  |  |  | 0 | 0 | 4 | 0 | 0 |  | 0 | 0 | 
STK38 (UniProt Q15208) | 0 | 0 | 0 | 0 | 0 | 0 | 0 | 0 | 0 | 0 | 0 | 1 | 0 | 0 | 1 | 0 | 0 | 
